Laboratory results published in PubChem BioAssay AID2685 (National Center for Advancing Translational Sciences (NCATS), 2010).
Some of the results follow. The main result of the screen is listed elsewhere. These columns were measured beside it and carry no call. The list favours compounds with an active or inconclusive main result. Words in brackets tell the shape of the fitted curve; partial curves, single points and poor fits give uncertain potencies.

Assay: qHTS Assay for Lipid Storage Modulators in Drosophila S3 Cells;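 for cell number change: cells counted by Cell Tracker Red CMTPX staining in the red channel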
Details: BODIPY lipid droplet fluorescence, 18-24 h; for cell number change: measured here: cell count max response, cells fed with added oleic acid
Procedure, shortened: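 Laser-scanning cytometry quantifies lipid droplet accumulation (500–530 nm total intensity; droplet/cell object ratio) in oleic acid-fed (400 uM added) Drosophila S3 cells treated with a concentration series. 20 uM Triacsin C defined 100% inhibition.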

[1] = measured here: cell number channel AC50, cells fed with added oleic acid
[2] = measured here: lipid fluorescence (Fed channel) AC50, cells fed with added oleic acid

| SMILES | cell number change [%] | AC50 [1] | AC50 [2] |
| --- | --- | --- | --- |
| O=S(=O)(NCc1ccccn1)c1cccc2nsnc12 | -0.806 | 0.82 µM [falling, single point] | 3.66 µM [falling, single point] |
| COc1ccc(-n2nc(C(=O)NCC(=O)N3CCN(Cc4ccccc4)CC3)c3ccccc3c2=O)cc1 |  |  | 0.82 µM [falling, full curve] |
| CCn1c(SCC(=O)N2CCC(C)CC2)nnc1-c1ccc(S(=O)(=O)N2CCN(C)CC2)cc1 | 12.6 |  |  |
| COc1cccc(OC(=O)CSc2nnc(-c3ccccc3Br)o2)c1 | -18.6 |  | 29.1 µM [falling, single point] |
| CC1=C(C(=O)Nc2ccccc2)C(c2ccco2)C(C#N)=C(SCC(=O)Nc2cccc(C)c2C)N1 (centres undefined) |  |  | 6.51 µM [rising, single point] |
| Cc1ccc2nc(-c3ccc(NC(=O)C(C)N4C(=O)c5ccccc5C4=O)cc3)sc2c1 (centres undefined) | 26.6 |  | 0.58 µM [falling, partial curve] |
| O=C(NCc1cc([N+](=O)[O-])ccc1O)c1cccnc1Sc1ccc(Cl)cc1 | 31.9 | 11.6 µM [rising, single point] |  |
| C=CCOC(=O)C1=C(C)NC(=O)NC1c1cn(-c2ccccc2)nc1-c1cccs1 (centres undefined) | 39.3 | 3.66 µM [rising, full curve] |  |
| COc1ccc(N2CC(C(=O)Nc3ccc4c(c3)OCCO4)CC2=O)cc1 (centres undefined) | -36.8 |  |  |
| CCOc1ccc(C(=O)N[C@H](C(=O)O)C(C)C)cc1 | 15.6 |  | 0.103 µM [falling, full curve, poor fit] |
| NC(=O)CCCn1c(C(=O)c2cc(Cl)c(N)c(Cl)c2)c2ccc(C(F)(F)F)cc2[n+]1[O-] | 18.5 |  | 0.116 µM [rising, partial curve, poor fit] |
| Cc1nn(-c2ccc(Cl)c(Cl)c2Cl)c(=O)c2ccccc12 | 21.1 |  | 4.11 µM [rising, single point] |
| CN(CCN1CCOCC1)C(=O)CC1C(=O)NCCN1Cc1ccccc1C(F)(F)F (centres undefined) | 1.47 |  |  |
| COc1ccc(CNC(=O)C2CCCN(S(=O)(=O)c3ccc(Br)s3)C2)cc1 (centres undefined) | 7.69 |  |  |
| COc1ccc(Cn2c(C)cc3c(c2=O)C(c2cccs2)C(C#N)=C(N)O3)cc1OC (centres undefined) | 41.5 | 0.291 µM [rising, full curve] | 1.64 µM [rising, partial curve] |
| CCCCN(C)CCN1C(=O)C2C(C(=O)Nc3ccc(OC)cc3)C3C=CC2(O3)C1C(=O)NC1CCCCC1 (centres undefined) | 15.2 |  | 0.206 µM [falling, single point] |
| O=C(CN1CCCCCC1)Nc1c(Cl)cc(Cl)cc1Cl | 1.17 |  |  |
| CC(C)C(=O)Nc1ccc(C(=O)N/N=C/c2cc(Br)cc(Br)c2O)cc1 | -62.3 | 8.2 µM [falling, partial curve] | 9.2 µM [falling, partial curve] |
| COc1ccc(NC(=O)CN(Cc2ccco2)Cc2ccco2)cc1S(=O)(=O)N1CCCCC1 | 13.7 |  | 0.013 µM [rising, partial curve, poor fit] |
| COc1cc(C(C(=O)NCc2ccccc2)N(Cc2ccco2)C(=O)c2cnccn2)cc(OC)c1OC (centres undefined) | -49.3 | 4.61 µM [falling, single point] | 5.17 µM [rising, single point] |

For reference, two of the compounds above.

| SMILES | cell number change [%] | AC50 [1] | AC50 [2] |
| --- | --- | --- | --- |
| COc1ccc(-n2nc(C(=O)NCC(=O)N3CCN(Cc4ccccc4)CC3)c3ccccc3c2=O)cc1 |  |  | 0.82 µM [falling, full curve] |
| CCn1c(SCC(=O)N2CCC(C)CC2)nnc1-c1ccc(S(=O)(=O)N2CCN(C)CC2)cc1 | 12.6 |  |  |

Going on with the list:

| SMILES | cell number change [%] | AC50 [1] | AC50 [2] |
| --- | --- | --- | --- |
| O=C(COC(=O)CCc1ccccc1)NC12CC3CC(CC(C3)C1)C2 | -13.5 |  | 3.66 µM [falling, single point] |
| COc1ccccc1C(=O)NCCC(=O)N1CCN(S(=O)(=O)c2cccc(Cl)c2)CC1 | -0.648 |  | 0.0326 µM [falling, full curve, poor fit] |
| COc1ccc(N2CCN(C(C)C(=O)N3CC(C)OC(C)C3)CC2)cc1 (centres undefined) | -27.1 |  | 23.1 µM [falling, single point] |
| CCc1ccc(NC(=O)COc2ccc(Br)cn2)cc1 |  |  | 0.00461 µM [falling, full curve, poor fit] |
| NC(=O)c1sc2nc3c(c(-c4ccco4)c2c1N)CCC3 |  | 5.8 µM [rising, single point] |  |
| CN(Cc1ccccc1)c1nc(CN2CCOCC2)nc2scc(-c3ccccc3)c12 | 12.5 | 3.26 µM [rising, single point] |  |
| CCSCc1nnc(SCC(=O)Nc2cccc(SC)c2)n1C | 1.57 | 6.51 µM [falling, single point] | 29.1 µM [falling, single point] |
| CNS(=O)(=O)c1cccc(C(=O)OCc2cc(=O)n3cc(Br)ccc3n2)c1 | 8.62 |  | 7.31 µM [rising, partial curve, poor fit] |
| CSc1nc2[nH]c3c(c2c2ncnn12)CCCC3 |  | 1.46 µM [rising, partial curve] | 1.3 µM [rising, full curve] |
| COc1ccc(C2=NS(=O)(=O)N(C)C(C(=O)NCc3cccs3)=C2)cc1OC | -17 |  | 32.6 µM [falling, single point] |
| Cc1ccc(C(=O)c2cc3ccccc3o2)cc1C | 105 | 18.4 µM [rising, partial curve] | 18.4 µM [rising, partial curve] |
| COc1ccc(S(=O)(=O)NC2CC(=O)N(c3ccc4c(c3)OCCO4)C2)cc1 (centres undefined) | 32.7 | 23.1 µM [rising, single point] |  |
| CSc1nnc(C2CCCN(CC(=O)Nc3ccccc3N3CCOCC3)C2)n1C(C)C (centres undefined) | -19.3 |  | 0.206 µM [rising, single point] |
| CCc1ccccc1NC(=O)NCCN1CCCCC1 | 14.3 |  | 29.1 µM [rising, partial curve, poor fit] |
| Cc1cccc(N2CCN(C(=O)CCC(=O)N3CC(C)Oc4ccc(C)cc43)CC2C)c1 (centres undefined) | 7.49 |  | 9.2 µM [falling, partial curve, poor fit] |
| CCN1C(=O)c2cccc3c(S(=O)(=O)Nc4ccccc4)ccc1c23 | -25.6 |  | 0.164 µM [falling, full curve, poor fit] |
| CN(c1ccc(OCC(=O)Nc2nc3ccccc3s2)cc1)S(=O)(=O)c1ccccc1 | -16.5 |  | 16.4 µM [falling, single point] |
| Cc1ccc(-c2nnn(CC(=O)N(CC(=O)NC3CCCC3)c3ccc(F)cc3)n2)o1 | -15.8 |  |  |
| O=C(Nc1cc(Cl)cc(Cl)c1)C(c1ccccc1)N1CCCCC1 (centres undefined) | 8.8 | 1.84 µM [rising, partial curve] | 2.06 µM [rising, partial curve] |
| Cc1cc(-n2c(C)cc(C(=O)CCl)c2C)no1 | -61.8 |  |  |

| SMILES | cell number change [%] | AC50 [1] | AC50 [2] |
| --- | --- | --- | --- |
| CCCn1nc(C(=O)NCC2COc3ccccc3O2)c2ccccc2c1=O (centres undefined) | -14.6 |  | 0.103 µM [falling, full curve, poor fit] |
| O=C1NC(=O)/C(=C\c2ccc(Oc3cnccn3)cc2)S1 | 60.3 | 20.6 µM [rising, single point] | 0.82 µM [rising, full curve] |
| Cc1ccc(N2CC(C(=O)N3CCOCC3)CC2=O)cc1C (centres undefined) | -1.32 |  | 35.5 µM [rising, single point] |
| CCC(=O)N(Cc1cc(=O)[nH]c2ccccc12)c1ccccc1C | 2.25 |  | 0.13 µM [falling, full curve, poor fit] |
| CCC(C)NC(=O)CSc1ccc(NC(C)=O)cc1 (centres undefined) | 8.05 |  | 0.13 µM [falling, full curve, poor fit] |
| CN(C)c1ccc(NC(=S)NC23CC4CC(CC(C4)C2)C3)cc1 | 9.52 |  |  |
| COC(=O)c1ccc(N2CCOCC2)c(F)c1 | 35.3 | 29.1 µM [rising, single point] |  |
| CCCC(=O)Nc1ccc2c(c1)C(=O)NC2=O | -32.3 | 0.00411 µM [falling, full curve, poor fit] | 0.651 µM [falling, single point] |
| CC(C)CCNC(=O)C1CCN(C(=O)N(C)C)CC1 | -26.9 |  | 29.1 µM [falling, single point] |
| CCOC(=O)C1=C(C)NC(SC(C)=O)=NC1c1ccc(OC(C)=O)c(OC)c1 (centres undefined) | 3.78 | 1.3 µM [falling, full curve, poor fit] |  |
| C=C(C)CNC(=S)N1CCNC(=O)C1CC(=O)OC (centres undefined) | -17.5 |  | 3.66 µM [falling, single point] |
| COc1ccc(C(CCc2ccc(C)o2)NC(=O)Nc2ccc(OC)cc2OC)cc1 (centres undefined) | 72.1 | 1.64 µM [rising, partial curve] |  |
| CNS(=O)(=O)c1cc(NC(=O)CCNC(=O)c2ccco2)ccc1C | 36.2 | 29.1 µM [rising, partial curve, poor fit] |  |
| O=C(NC1CCCC1)C(c1ccc(F)cc1)N(Cc1ccccc1)C(=O)c1csnn1 (centres undefined) | -26.7 |  | 6.51 µM [falling, single point] |
| Cc1nc(N2CCN(C)CC2)c2c(C)c(C(=O)Nc3ccc(C)c(F)c3)sc2n1 | 103 |  | 0.58 µM [rising, single point] |
| CCOc1ccc(C2=CC(=O)C[C@H](c3ccc(OC)cc3)C2)cc1 | -10.1 |  | 0.0651 µM [rising, partial curve, poor fit] |
| CCOC(=O)c1c(C)[nH]c(C(=O)COC(=O)C(C)Oc2ccc(Cl)cc2Cl)c1C (centres undefined) | 12.9 |  | 0.103 µM [rising, full curve, poor fit] |
| COc1ccc(-c2nnc(SCC(=O)OC3CCCCC3)o2)cc1OC | 36.9 | 0.00651 µM [rising, full curve, poor fit] | 0.411 µM [rising, full curve] |
